The results in this text go back to patent publication US20120066777A1 (SHIONOGI, published 2012).

These are yes or no findings as the source states them, for the method shown. Some entries that bind do so weakly or less than the wild type.

Assay [1] deals with T1, human recombinant CCDC3 protein (human, UniProt Q9BQI4 22-270).
T1 construct: Secreted from Freestyle293 cells, purified from culture supernatant, 3xFlag tag removed with thrombin (31 kDa); the C-terminus at 270 follows from the C-terminus peptide 259-270; Also used biotin-labelled (PEO-maleimide biotin) as tracer; also called human CCDC3 recombinant protein; human CCDC3 protein
T1 sequence: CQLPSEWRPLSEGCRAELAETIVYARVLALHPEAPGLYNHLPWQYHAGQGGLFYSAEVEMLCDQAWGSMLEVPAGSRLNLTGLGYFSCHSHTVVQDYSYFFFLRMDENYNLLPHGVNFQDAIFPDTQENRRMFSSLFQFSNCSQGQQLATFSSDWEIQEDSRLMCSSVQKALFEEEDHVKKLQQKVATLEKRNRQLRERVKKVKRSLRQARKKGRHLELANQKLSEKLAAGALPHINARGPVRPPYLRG
Kind of assay: western blot, reduced SDS-PAGE, 50 ng protein.

Assay [2] addresses T1, human recombinant CCDC3 protein. Put plainly: hybridoma screening ELISA, antibody captured on anti-mouse IgG plate, biotin tracer.
Assay [3] shares this target. Put plainly: chemiluminescence sandwich ELISA, detection antibody. Background: ELISA stands for enzyme-linked immunosorbent assay.

B1: 11E10 antibody (antibody, IgG2b, V domains shown)
VH: QVQLQQSGPELVKPGASVKISCKASGYSFRSYYIHWMKQSPGQGLEWIAWIYPGGGKIYYNDNEKFKDKVTLTADTSSSTAYMQLTGLTSEDSAVYFCARWGGYYVGSILDYWGQGTSVTVSS
VL: DGDIVMTQSQKFLSTSVGDRVSVTCKASQNVDNNVAWYQQRPGQSPKPLIYLTSSRYSGVPDRFTGSGSGTDFTLTITNVQSEDLAEYFCQQYKTYPLTFSVGTKLELKRA
notes: Mouse hybridoma monoclonal, isotype IgG2b; From a mouse immunized with antigen 2 (human recombinant CCDC3-KLH conjugate); also called human anti-CCDC3 antibody 11E10
Regarding B1, the binding entry in assay [1] and in assay [2] was “binds” throughout.

B2: alkaliphosphatase-labeled 11E10 Fab' antibody (Fab, V domains shown)
VH: B1 VH
VL: B1 VL
modifications: alkaliphosphatase (ALP) coupled through sulfo-SMCC maleimide to the Fab' thiol
For the molecule B2, the binding result in assay [3] was “binds”.
